This note sets out measurements from patent US20070208011A1, “Supersaturated Benzodiazepine Solutions and Their Delivery” (priority 2005, published 2007).

A short description of data set [1]: Nasal administration of diazepam and midazolam preparations in two healthy volunteers. Particulars: human, blood, other: intranasal, 5 mg. On the procedure:
Approximately 0.5 ml (2.5 mg) was dripped into each nostril over a period of 30 seconds.

A further data set is described as follows: clinical. Particulars: human, plasma, inhaled or intranasal, 5 mg.

A word on the half-life: it is the time needed for the level to fall by half in the phase considered. Low readings indicate fast loss, high ones slow loss. Regarding `Cc1ncc2n1-c1ccc(Cl)cc1C(c1ccccc1F)=NC2` [MDZ, midazolam], the half-life in data set [1] is 1.54 h; in “clinical” it was 2.2 h.
